{"source": "PubChem BioAssay AID540303", "about": "(National Center for Advancing Translational Sciences (NCATS), 2011)", "note": "The whole screen tested about 330,000 compounds, of which about 1,000 (0.3%) were called active. Inconclusive results, whose numbers are uncertain, are shown with a selection of clear calls. Calls come from the whole dose curve; as a rule, active = well fitted inhibition curve with a large enough effect; inconclusive = small, poorly fitted or top-dose-only effect; inactive = no such curve, though single readings can be large or run the other way; tested in mouse RAW 264.7 cells. Where the call is inconclusive, the potency comes from a doubtful curve fit. % is set by controls: 0 for no effect and ±100 for the full control effect; potency is the fitted concentration of half-maximal effect.", "data": [{"test": "qHTS for Inhibitors of Cell Surface uPA Generation; note: nearly all actives have a fitted effect of over 55% in size", "details": "cell surface uPA generation assay; series mostly up to 38.3 µM; activity change, negative = inhibition: at the top concentration", "summary_of_the_method": "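RAW 264.7, 4000 cells/well, o/n 37 C; cpd 1:5 dilution, up to 38.3 uM final; 24 h 37 C/5% CO2 with reagent; ATP-Lite lum. High ATP = LF entry blocked.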", "values": [{"smiles": "CC(=O)c1ccc(OCCCC(=O)OCC(=O)Nc2ccc3[nH]c(=O)[nH]c3c2)cc1", "activity change, negative = inhibition": "inactive: -1.2%"}, {"smiles": "N#CCc1c(C#N)c(N)nc(N2CCN(Cc3ccc4c(c3)OCO4)CC2)c1C#N", "activity change, negative = inhibition": "inactive: 0.727%"}, {"smiles": "CC(C)c1c(C(=O)N/N=C/c2ccc3c(c2)OCO3)nnn1-c1nonc1N", "activity change, negative = inhibition": "inactive: -19.1%"}, {"smiles": "C[n+]1cc[nH]c1SCC(=O)c1ccccc1", "activity change, negative = inhibition": "inactive: 4.97%"}, {"smiles": "O=C(Nc1ccccc1)C1=C[C@@H](c2csc3ccccc23)C[C@@H](OCc2ccc(CO)cc2)O1", "Potency": "inconclusive: 28.2 µM [inhibitor, single point]"}, {"smiles": "CC(=O)c1c(Nc2ccc3c(c2)OCCO3)oc(C)cc1=O", "Potency": "inconclusive: 11.2 µM [inhibitor, single point]"}, {"smiles": "CNC(C)C#Cc1c(-c2cc(OC)c(OC)c(OC)c2)noc1C", "note": "(stereo not given)", "Potency": "inconclusive: 14.1 µM [inhibitor, partial curve, poor fit]"}, {"smiles": "Cc1cc(NC(=O)c2ccc(Cl)cc2)no1", "Potency": "inconclusive: 3.98 µM [inhibitor, partial curve, poor fit]"}, {"smiles": "Cc1ccc(CN=c2c([N+](=O)[O-])nn(-c3cccc(Cl)c3)n2O)cc1", "activity change, negative = inhibition": "inactive: -3.03%"}, {"smiles": "Fc1ccc(Cn2nnc3ccccc32)cc1", "Potency": "inconclusive: 0.316 µM [inhibitor, full curve, poor fit]"}, {"smiles": "O=C(CN1CCCCCC1)Nc1c(Cl)cc(Cl)cc1Cl", "Potency": "inconclusive: 0.794 µM [inhibitor, partial curve, poor fit]"}, {"smiles": "CCOC(=O)CC[C@H](NC(=O)Cn1cnc(C(=O)Nc2ccc(C)c(C)c2)n1)C(=O)OCC", "Potency": "inconclusive: 11.2 µM [inhibitor, single point]"}, {"smiles": "COc1cc(S(=O)(=O)N2CCOCC2)ccc1NC(=O)COC(=O)COc1ccccc1", "activity change, negative = inhibition": "inactive: -2.39%"}, {"smiles": "O=C1N/C(=N/Nc2ccccc2)S/C1=C\\c1ccccc1", "activity change, negative = inhibition": "inactive: 1.85%"}, {"smiles": "O=C1Nc2ccccc2N(O)N1c1cc(-c2ccccc2Cl)no1", "activity change, negative = inhibition": "inactive: -6.87%"}, {"smiles": "COc1ccccc1NS(=O)(=O)c1ccc(C(=O)NCC(c2ccccc2OC)N2CCCC2)cc1", "note": "(stereo not given)", "Potency": "inconclusive: 10 µM [inhibitor, single point]"}, {"smiles": "CCc1ccc(Nc2n[n+](-c3ccccc3)c(-c3ccc(N(CC)CC)cc3)s2)cc1", "Potency": "inconclusive: 12.6 µM [inhibitor, single point]"}, {"smiles": "O=c1cc(CCl)nc2sc3ccccc3n12", "activity change, negative = inhibition": "inactive: 1.08%"}, {"smiles": "O=C(O)c1ccc2c(c1)C1C=CCC1C(c1cc3c(cc1Br)OCO3)N2", "note": "(stereo not given)", "Potency": "inconclusive: 10 µM [inhibitor, single point]"}, {"smiles": "Cc1cccc(C2Nc3ccccc3C(=O)N2CCc2ccccc2)n1", "note": "(stereo not given)", "Potency": "inconclusive: 4.47 µM [inhibitor, partial curve, poor fit]"}, {"smiles": "C=C1CCC[C@]2(C)C[C@H]3OC(=O)C(CN4CCOCC4)[C@H]3C[C@@H]12", "note": "(stereo not given in full)", "Potency": "inconclusive: 11.2 µM [inhibitor, partial curve]"}, {"smiles": "CN1CCN(c2ccc(NC(=O)c3cc([N+](=O)[O-])ccc3N3CCOCC3)cc2)CC1", "Potency": "inconclusive: 1 µM [inhibitor, full curve, poor fit]"}, {"smiles": "CS(=O)(=O)c1ccc(NS(=O)(=O)c2ccc(Cl)c(C(=O)NCc3ccco3)c2)cc1", "Potency": "inconclusive: 0.01 µM [inhibitor, full curve, poor fit]"}, {"smiles": "COc1ccc(C(C)=O)cc1CC(=O)NC1CCCCCC1", "activity change, negative = inhibition": "inactive: -0.217%"}, {"smiles": "CC(=O)NN1C(=O)/C(=C2/Sc3ccccc3N2C)SC1=S", "activity change, negative = inhibition": "inactive: -7.57%"}, {"smiles": "COc1cccc(N2CCN(C(=O)c3cn(Cc4ccccc4)nc3-c3cccnc3)CC2)c1", "Potency": "inconclusive: 1 µM [inhibitor, full curve, poor fit]"}, {"smiles": "CC(=O)c1ccc(-n2nncc2C(C)(C)C)cc1", "activity change, negative = inhibition": "inactive: -11.6%"}, {"smiles": "CC(=O)c1ccc(NC(=O)CN2CCC(NC(=O)C3CCCCC3)CC2)cc1", "activity change, negative = inhibition": "inactive: -3.94%"}, {"smiles": "CCOC(=O)CNC(=O)C1COc2ccccc2O1", "note": "(stereo not given)", "activity change, negative = inhibition": "inactive: -5.01%"}, {"smiles": "CSc1nc(Sc2ccc(Cl)cc2)c2ccccc2n1", "activity change, negative = inhibition": "inactive: 2.92%"}, {"smiles": "CC(C)C[C@@H](CN(C)N=O)N(C[C@H](Cc1ccccc1)N(CCc1ccccc1)N=O)N=O", "activity change, negative = inhibition": "inactive: -0.646%"}, {"smiles": "COc1cccc(C(=O)Nc2nnc(-c3ccc(Cl)cc3)o2)c1", "Potency": "inconclusive: 6.31 µM [inhibitor, single point]"}, {"smiles": "COc1ccc(Cl)cc1/C=C/c1ccc2cccc(O)c2n1", "Potency": "inconclusive: 11.2 µM [inhibitor, single point]"}, {"smiles": "CCOC(=O)c1cc2c(=O)n3cccc(C)c3nc2n(Cc2ccco2)c1=NC(=O)c1cccnc1", "activity change, negative = inhibition": "inactive: -3.94%"}, {"smiles": "Cc1ccc(S(=O)(=O)N2CCC(C(=O)NNC(=O)c3ccccc3)CC2)cc1", "Potency": "inconclusive: 3.16 µM [inhibitor, partial curve, poor fit]"}, {"smiles": "COC(=O)c1cc(NC(=O)CN(C)Cc2ccccc2)cc(C(=O)OC)c1", "activity change, negative = inhibition": "inactive: 2.01%"}, {"smiles": "O=C(CCNC(=O)c1ccc(Cl)cc1)NC1CCCc2ccccc21", "note": "(stereo not given)", "Potency": "active: 5.62 µM"}, {"smiles": "COC(=O)Nc1ccc2ccc3c(NC(=O)OC)ccc4ccc1c2c43", "Potency": "inconclusive: 10 µM [inhibitor, single point]"}, {"smiles": "CC(=O)Nc1ccc(S(=O)(=O)N(C)c2nc3ccccc3nc2Cl)cc1", "Potency": "inconclusive: 1.78 µM [inhibitor, full curve, poor fit]"}, {"smiles": "Cc1cccc(N2CCN(C(=O)c3cc(S(=O)(=O)N4CCCC4)cn3C)CC2)c1C", "Potency": "inconclusive: 0.891 µM [inhibitor, full curve, poor fit]"}, {"smiles": "C=CCNC(=O)c1c(CSc2ccc(Cl)cc2)noc1C(=O)NCc1ccccc1", "Potency": "inconclusive: 28.2 µM [inhibitor, single point]"}, {"smiles": "O=C(Oc1ccc(O)cc1)C12CC3CC(CC(C3)C1)C2", "Potency": "inconclusive: 11.2 µM [inhibitor, partial curve, poor fit]"}, {"smiles": "COc1cccc(-c2nnc(SCC(=O)N3CCCc4ccccc43)o2)c1", "activity change, negative = inhibition": "inactive: 2.04%"}, {"smiles": "Fc1ccc(NC(=S)Nc2cccc3ccccc23)cc1F", "activity change, negative = inhibition": "inactive: -23.4%"}, {"smiles": "CNCCCN1c2ccccc2CCc2ccccc21", "Potency": "inconclusive: 7.08 µM [inhibitor, single point]"}, {"smiles": "Cc1c(O)ccc(/C(Cc2ccc3ccccc3n2)=N\\N)c1O", "Potency": "inconclusive: 8.91 µM [inhibitor, partial curve]"}, {"smiles": "Cc1ccc(Nc2nc(=O)c3cccnc3s2)cc1", "Potency": "inconclusive: 2.82 µM [inhibitor, full curve, poor fit]"}, {"smiles": "O=C(C1=C[C@H](c2ccc(Br)cc2)C[C@H](OCc2ccc(CO)cc2)O1)N1CCN(Cc2ccc3c(c2)OCO3)CC1", "Potency": "inconclusive: 28.2 µM [inhibitor, single point]"}, {"smiles": "CC(=O)Nc1ccc(S(=O)(=O)N(C)Cc2cnn(C)c2)cc1", "activity change, negative = inhibition": "inactive: 2.6%"}, {"smiles": "CCOCCCNCc1ccc(OCc2ccccc2C)c(OC)c1", "Potency": "inconclusive: 12.6 µM [inhibitor, partial curve, poor fit]"}, {"smiles": "COc1ccc(CN2CCC(Cc3ccccc3)CC2)cc1OC", "Potency": "inconclusive: 0.0251 µM [inhibitor, full curve, poor fit]"}, {"smiles": "C[C@]12c3[nH]c4ccc(Cl)cc4c3CCN1C(=O)[C@@H](CC(=O)NCC13CC4CC(CC(C4)C1)C3)C[C@@H]2C(=O)N1CCOCC1", "Potency": "inconclusive: 14.1 µM [inhibitor, single point]"}, {"smiles": "O=C(NC(=S)N1CCCCCC1)c1cccc([N+](=O)[O-])c1", "Potency": "inconclusive: 14.1 µM [inhibitor, partial curve, poor fit]"}, {"smiles": "CC(=O)N1c2ccc(S(=O)(=O)NCCC(=O)NCc3ccc(F)cc3)cc2CC1C", "note": "(stereo not given)", "activity change, negative = inhibition": "inactive: 9.81%"}, {"smiles": "Cc1onc(-c2ccccc2Cl)c1C(=O)O/N=C(\\N)c1ccc([N+](=O)[O-])o1", "Potency": "active: 4.47 µM"}, {"smiles": "Cc1ccccc1CN1CCSc2sccc2C1=O", "Potency": "inconclusive: 0.0089 µM [inhibitor, full curve, poor fit]"}, {"smiles": "Cc1ccc(C(=O)NC(=S)Nc2cc(C(F)(F)F)ccc2Cl)cc1", "activity change, negative = inhibition": "inactive: 5.48%"}, {"smiles": "CC(C)(C)OC(=O)NC(Cc1ccccc1)C(=O)O", "note": "(stereo not given)", "Potency": "inconclusive: 0.891 µM [inhibitor, partial curve, poor fit]"}, {"smiles": "Cc1ccccc1C(=O)Nc1ccnn1C1CCN(CC2CC=CCC2)CC1", "note": "(stereo not given)", "Potency": "inconclusive: 1.12 µM [inhibitor, single point]"}, {"smiles": "COc1ccccc1NS(=O)(=O)c1ccc(C(=O)NCC(c2ccco2)N(C)C)cc1", "note": "(stereo not given)", "Potency": "inconclusive: 11.2 µM [inhibitor, partial curve]"}, {"smiles": "CCOc1cc(/C=C/c2nc3ccccc3c(=O)[nH]2)ccc1O", "Potency": "inconclusive: 12.6 µM [inhibitor, single point]"}, {"smiles": "COc1cc(-c2noc(C)c2/C=C/c2ccc(OC(C)=O)cc2)cc(OC)c1OC", "Potency": "inconclusive: 0.0562 µM [inhibitor, full curve, poor fit]"}, {"smiles": "O=C(Nc1ccc2ccccc2n1)c1ccccc1Cl", "Potency": "inconclusive: 8.91 µM [inhibitor, partial curve, poor fit]"}, {"smiles": "CCC(CC)NC(=O)CN(c1ccccc1OC)S(=O)(=O)c1cccs1", "Potency": "inconclusive: 5.62 µM [inhibitor, partial curve, poor fit]"}, {"smiles": "Cc1ccc(CSc2nnc(SCC(=O)N/N=C/c3c[nH]c4ccccc34)s2)cc1", "activity change, negative = inhibition": "inactive: -0.0761%"}, {"smiles": "Clc1ccc(C2=NNC(=NCc3ccccc3)SC2)cc1", "activity change, negative = inhibition": "inactive: -0.08%"}, {"smiles": "CC(C)(C)c1ccc(OCCC(=O)Nc2cccc(S(=O)(=O)N3CCOCC3)c2)cc1", "Potency": "inconclusive: 8.91 µM [inhibitor, single point]"}, {"smiles": "N#Cc1nc(NCC(F)F)nc(Nc2cc(F)cc(F)c2)n1", "Potency": "inconclusive: 10 µM [inhibitor, partial curve, poor fit]"}, {"smiles": "Cc1ccc(S(=O)(=O)Nc2ccc(C(=O)N3CCCC3)cc2)cc1", "activity change, negative = inhibition": "inactive: -0.178%"}, {"smiles": "COc1cc(C(=O)N/N=C(\\c2ccccc2)c2ccccn2)cc(OC)c1OC", "Potency": "inconclusive: 2.24 µM [inhibitor, full curve, poor fit]"}]}]}
